Literature values as cited in article PMC7757987, “Antitumor Activity and Mechanism Study of Riluzole and Its Derivatives” (Iranian Journal of Pharmaceutical Research : IJPR, 2020).

Settings: cited from earlier work

In the case of `Nc1nc2ccc(OC(F)(F)F)cc2s1` [Compound 1, 2-amino-6-trifuromethoxybenzothiazole], the Absolute bioavailability is given as about 60% and the Blood-brain barrier crossing is given as “able to cross the blood-brain barrier”.
